Measurements published in publication PMC12084338.

The chains behind the UniProt entries cited, without tags or fusion partners.
UniProt P16615: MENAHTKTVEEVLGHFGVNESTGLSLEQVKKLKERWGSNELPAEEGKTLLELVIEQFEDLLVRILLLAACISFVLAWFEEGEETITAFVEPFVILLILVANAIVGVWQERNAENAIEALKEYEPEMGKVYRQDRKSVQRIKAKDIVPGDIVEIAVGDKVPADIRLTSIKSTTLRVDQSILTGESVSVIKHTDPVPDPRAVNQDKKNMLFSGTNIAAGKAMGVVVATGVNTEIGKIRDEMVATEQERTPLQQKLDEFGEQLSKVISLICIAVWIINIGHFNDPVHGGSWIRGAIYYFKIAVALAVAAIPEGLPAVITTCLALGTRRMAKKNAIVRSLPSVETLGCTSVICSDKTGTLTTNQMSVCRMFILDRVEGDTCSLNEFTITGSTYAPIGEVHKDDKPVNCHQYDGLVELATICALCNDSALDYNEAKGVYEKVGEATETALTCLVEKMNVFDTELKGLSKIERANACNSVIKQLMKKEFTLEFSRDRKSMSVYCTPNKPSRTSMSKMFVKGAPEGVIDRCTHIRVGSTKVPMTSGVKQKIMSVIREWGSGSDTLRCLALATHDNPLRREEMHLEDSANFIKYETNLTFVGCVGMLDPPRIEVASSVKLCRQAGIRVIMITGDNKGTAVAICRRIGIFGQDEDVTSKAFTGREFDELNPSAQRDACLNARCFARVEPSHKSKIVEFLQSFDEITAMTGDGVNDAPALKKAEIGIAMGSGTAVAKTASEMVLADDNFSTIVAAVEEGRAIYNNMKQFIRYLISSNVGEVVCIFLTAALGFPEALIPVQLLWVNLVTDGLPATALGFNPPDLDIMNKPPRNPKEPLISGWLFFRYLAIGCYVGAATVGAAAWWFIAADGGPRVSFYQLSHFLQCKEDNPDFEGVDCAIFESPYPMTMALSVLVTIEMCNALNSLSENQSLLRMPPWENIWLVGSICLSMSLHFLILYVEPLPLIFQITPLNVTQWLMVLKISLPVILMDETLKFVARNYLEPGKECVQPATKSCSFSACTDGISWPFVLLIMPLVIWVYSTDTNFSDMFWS
UniProt Q92736: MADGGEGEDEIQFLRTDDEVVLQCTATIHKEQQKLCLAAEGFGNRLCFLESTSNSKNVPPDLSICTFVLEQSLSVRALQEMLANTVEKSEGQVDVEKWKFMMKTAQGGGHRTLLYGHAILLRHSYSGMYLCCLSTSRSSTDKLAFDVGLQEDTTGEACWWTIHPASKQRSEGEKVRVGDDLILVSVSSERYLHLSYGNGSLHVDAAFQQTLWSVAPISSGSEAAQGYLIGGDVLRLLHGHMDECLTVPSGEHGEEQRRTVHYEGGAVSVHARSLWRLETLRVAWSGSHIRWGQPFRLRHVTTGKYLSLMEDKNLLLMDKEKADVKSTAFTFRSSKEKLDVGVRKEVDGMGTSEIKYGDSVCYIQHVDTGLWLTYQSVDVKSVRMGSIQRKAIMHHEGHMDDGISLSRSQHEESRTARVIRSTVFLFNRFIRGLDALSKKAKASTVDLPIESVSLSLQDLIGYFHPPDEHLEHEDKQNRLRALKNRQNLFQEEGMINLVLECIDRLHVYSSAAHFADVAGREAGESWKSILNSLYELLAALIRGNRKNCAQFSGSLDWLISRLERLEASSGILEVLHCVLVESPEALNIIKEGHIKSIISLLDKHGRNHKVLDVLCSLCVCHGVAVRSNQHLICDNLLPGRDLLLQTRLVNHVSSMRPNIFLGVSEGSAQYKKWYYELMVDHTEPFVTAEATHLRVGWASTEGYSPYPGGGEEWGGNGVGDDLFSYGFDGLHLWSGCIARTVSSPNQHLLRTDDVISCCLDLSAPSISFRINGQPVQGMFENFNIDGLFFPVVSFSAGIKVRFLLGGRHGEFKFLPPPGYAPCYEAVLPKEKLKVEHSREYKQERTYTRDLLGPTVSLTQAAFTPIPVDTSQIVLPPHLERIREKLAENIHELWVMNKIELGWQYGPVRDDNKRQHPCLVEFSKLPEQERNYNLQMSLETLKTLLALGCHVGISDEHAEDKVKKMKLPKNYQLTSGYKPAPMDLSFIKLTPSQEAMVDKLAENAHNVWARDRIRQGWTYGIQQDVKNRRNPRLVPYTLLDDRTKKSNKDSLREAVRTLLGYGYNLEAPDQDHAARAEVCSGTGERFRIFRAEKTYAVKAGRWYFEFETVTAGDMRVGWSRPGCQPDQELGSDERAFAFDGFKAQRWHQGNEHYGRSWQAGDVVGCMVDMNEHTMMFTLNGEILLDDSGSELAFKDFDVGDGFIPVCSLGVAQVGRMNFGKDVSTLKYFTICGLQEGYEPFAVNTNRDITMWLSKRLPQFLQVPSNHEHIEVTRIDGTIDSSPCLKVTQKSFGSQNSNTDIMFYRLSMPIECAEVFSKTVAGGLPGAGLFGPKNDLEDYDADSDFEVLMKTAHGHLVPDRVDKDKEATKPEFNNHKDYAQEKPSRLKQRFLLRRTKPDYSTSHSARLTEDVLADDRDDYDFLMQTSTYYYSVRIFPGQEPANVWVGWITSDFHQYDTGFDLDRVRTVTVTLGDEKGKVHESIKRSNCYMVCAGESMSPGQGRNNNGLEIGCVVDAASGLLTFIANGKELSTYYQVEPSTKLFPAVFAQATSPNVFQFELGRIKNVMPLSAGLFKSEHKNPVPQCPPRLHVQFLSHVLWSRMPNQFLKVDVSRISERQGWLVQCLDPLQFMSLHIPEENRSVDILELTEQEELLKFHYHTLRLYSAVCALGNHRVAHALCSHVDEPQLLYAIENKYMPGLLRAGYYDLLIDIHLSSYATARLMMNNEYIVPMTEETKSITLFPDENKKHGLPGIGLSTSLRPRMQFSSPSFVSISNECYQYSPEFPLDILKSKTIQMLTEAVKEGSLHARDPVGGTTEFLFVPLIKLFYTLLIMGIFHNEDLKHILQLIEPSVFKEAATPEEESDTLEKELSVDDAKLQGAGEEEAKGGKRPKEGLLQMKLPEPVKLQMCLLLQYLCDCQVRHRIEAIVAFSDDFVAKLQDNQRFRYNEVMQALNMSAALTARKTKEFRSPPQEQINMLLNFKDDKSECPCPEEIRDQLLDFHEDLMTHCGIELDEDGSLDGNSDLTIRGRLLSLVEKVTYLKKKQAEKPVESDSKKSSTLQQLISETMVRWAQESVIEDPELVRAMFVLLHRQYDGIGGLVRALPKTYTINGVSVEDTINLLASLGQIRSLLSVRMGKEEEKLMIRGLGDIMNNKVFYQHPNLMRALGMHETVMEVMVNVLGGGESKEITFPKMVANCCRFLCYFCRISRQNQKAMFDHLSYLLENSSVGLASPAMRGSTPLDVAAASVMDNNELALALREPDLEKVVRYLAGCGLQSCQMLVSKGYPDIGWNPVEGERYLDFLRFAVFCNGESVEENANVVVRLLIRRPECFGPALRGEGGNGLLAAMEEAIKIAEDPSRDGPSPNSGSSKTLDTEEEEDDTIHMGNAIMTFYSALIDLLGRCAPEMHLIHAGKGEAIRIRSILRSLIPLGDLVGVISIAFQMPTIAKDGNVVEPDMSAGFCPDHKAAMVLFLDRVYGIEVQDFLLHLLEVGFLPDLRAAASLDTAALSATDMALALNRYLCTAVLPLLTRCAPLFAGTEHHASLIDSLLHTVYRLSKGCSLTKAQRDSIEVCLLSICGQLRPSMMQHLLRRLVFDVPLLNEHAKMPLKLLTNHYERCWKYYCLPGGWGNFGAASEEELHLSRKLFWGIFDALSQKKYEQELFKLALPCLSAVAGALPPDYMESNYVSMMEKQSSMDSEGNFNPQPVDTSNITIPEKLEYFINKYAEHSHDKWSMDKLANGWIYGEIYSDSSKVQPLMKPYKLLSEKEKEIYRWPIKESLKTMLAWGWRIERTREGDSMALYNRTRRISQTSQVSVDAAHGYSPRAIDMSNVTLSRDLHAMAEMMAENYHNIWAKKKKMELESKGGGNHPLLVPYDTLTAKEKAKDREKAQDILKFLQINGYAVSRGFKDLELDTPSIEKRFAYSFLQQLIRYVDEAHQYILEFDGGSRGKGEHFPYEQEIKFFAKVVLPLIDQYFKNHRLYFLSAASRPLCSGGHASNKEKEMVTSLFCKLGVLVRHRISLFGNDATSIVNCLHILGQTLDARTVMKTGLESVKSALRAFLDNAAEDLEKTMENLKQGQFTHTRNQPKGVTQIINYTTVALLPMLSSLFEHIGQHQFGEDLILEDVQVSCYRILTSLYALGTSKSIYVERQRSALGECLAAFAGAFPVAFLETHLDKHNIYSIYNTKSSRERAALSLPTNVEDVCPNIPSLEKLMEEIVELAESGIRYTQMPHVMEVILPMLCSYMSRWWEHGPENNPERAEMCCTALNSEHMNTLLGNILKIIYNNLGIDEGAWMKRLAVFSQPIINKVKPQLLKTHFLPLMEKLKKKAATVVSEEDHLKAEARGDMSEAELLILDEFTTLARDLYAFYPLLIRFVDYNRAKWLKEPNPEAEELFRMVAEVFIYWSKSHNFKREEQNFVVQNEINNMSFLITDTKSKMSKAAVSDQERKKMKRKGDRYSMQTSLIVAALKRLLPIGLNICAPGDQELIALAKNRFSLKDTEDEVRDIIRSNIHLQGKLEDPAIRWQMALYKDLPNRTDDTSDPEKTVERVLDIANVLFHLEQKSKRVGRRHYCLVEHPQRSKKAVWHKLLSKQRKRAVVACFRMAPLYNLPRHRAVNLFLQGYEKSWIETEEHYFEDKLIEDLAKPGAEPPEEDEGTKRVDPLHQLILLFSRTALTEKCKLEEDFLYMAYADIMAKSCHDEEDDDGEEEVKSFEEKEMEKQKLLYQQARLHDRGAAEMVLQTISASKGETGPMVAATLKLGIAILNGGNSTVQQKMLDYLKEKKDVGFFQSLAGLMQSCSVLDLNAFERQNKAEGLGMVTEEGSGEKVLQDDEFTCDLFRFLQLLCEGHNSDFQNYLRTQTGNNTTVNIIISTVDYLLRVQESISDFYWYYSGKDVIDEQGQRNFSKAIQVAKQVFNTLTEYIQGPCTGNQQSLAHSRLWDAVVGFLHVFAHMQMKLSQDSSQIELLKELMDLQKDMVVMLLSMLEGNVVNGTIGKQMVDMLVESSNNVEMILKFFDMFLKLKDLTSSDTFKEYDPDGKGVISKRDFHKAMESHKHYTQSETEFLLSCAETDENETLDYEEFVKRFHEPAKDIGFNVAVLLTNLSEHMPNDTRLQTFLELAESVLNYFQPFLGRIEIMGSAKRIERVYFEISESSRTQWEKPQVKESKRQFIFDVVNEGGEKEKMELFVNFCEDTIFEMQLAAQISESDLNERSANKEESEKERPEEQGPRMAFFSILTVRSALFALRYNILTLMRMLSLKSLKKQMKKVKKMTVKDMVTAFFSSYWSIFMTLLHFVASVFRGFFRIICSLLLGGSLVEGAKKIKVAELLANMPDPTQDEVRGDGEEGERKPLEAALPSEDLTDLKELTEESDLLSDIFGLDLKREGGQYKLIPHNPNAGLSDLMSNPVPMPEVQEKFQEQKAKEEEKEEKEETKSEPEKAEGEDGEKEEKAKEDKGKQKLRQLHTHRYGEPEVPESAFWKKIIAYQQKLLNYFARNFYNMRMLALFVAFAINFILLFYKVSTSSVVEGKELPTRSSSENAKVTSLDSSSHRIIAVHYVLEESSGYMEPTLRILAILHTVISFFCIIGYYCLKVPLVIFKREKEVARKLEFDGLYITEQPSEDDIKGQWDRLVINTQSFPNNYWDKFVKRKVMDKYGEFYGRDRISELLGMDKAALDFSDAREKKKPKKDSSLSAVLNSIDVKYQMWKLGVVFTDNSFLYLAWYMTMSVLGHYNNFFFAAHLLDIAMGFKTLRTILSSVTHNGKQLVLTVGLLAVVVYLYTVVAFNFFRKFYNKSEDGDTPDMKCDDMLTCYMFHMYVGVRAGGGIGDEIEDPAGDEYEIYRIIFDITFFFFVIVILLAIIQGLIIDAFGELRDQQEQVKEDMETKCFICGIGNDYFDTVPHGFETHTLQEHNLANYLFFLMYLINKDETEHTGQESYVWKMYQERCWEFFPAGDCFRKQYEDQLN

Assays:
[1] = target: sarco-ER Ca^2+ ATPase 2 (SERCA2) (human (endogenous in HEK293)) (UniProt P16615); assay: co-IP; reverse: HEK293 transfected with pMyc-SELT^U49C or pMyc for 48 h; immunoprecipitation with antibodies against SERCA2 or IP3R1 (IgG as control), protein A/G agarose; blot for Myc-SELT^U49C
Myc-tagged SELENOT^U49C = Myc-tagged SELENOT^U49C (UniProt P62341); assay: co-IP; HEK293 transfected with pMyc-SELT^U49C or pMyc for 48 h; immunoprecipitation of Myc-SELT^U49C (anti-Myc, IgG as control), protein A/G agarose; blots for SERCA2, IP3R1 and RYR2

Myc-tagged SELENOT^U49C (from UniProt P62341)
binding [1]: binds

ryanodine receptor 2 (RYR2) (from UniProt Q92736 1-4967)
binding (Myc-tagged SELENOT^U49C): no binding

These are yes or no findings as the source states them, for the method shown. In cells and extracts the contact can be indirect. For some assays here: Binding calls can cover weak binding; strength is not graded here.
